{"source": "PubChem BioAssay AID1671195 (Yale University, 2021)", "screen": "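Genes whose knockdown alters LDL uptake in liver cancer cells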 (primary screen)", "cell system": "human Huh7 hepatoma cells", "knock-down reagent": "siRNA pool against human genes, 18 nM", "duration": "about 2 to 2.5 days of knockdown, then 8 h LDL uptake", "conditions": "DiI-labelled LDL at 30 µg/ml for 8 h, in lipoprotein-deficient serum medium", "detection": "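Per-cell DiI-LDL intensity by automated imaging; well means scaled to the plate median and given as a robust z-score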", "scale": "robust z-score: higher = more LDL uptake after knockdown", "rule for the call": "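Active when two or more replicates show a robust z-score above 2 or below -2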", "note": "The whole screen tested about 22,000 reagents; below is a random part of them. About 1,510 of them (6.9%) count as active. 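Active includes knockdowns raising or lowering LDL uptake; positive z-scores mean more uptake, negative mean less.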 A number with no mark means an inactive call. Reagent sequences are not shown."}
{"target gene": "ZNF358 (zinc finger protein 358)", "robust z-score, replicate 1": -1.1, "robust z-score, replicate 2": -0.967, "robust z-score, replicate 3": -1.32}
{"target gene": "NTAN1 (N-terminal asparagine amidase)", "robust z-score, replicate 1": "2.86 (active)", "robust z-score, replicate 2": 2.48, "robust z-score, replicate 3": 2.88}
{"target gene": "NT5C3A (5'-nucleotidase, cytosolic IIIA)", "robust z-score, replicate 1": 0.678, "robust z-score, replicate 2": 1.37, "robust z-score, replicate 3": -1.94}
{"target gene": "LATS2 (large tumor suppressor kinase 2)", "robust z-score, replicate 1": -0.575, "robust z-score, replicate 2": 0.354, "robust z-score, replicate 3": 0.174}
{"target gene": "ASZ1", "robust z-score, replicate 1": 1.14, "robust z-score, replicate 2": -0.405, "robust z-score, replicate 3": 0.626}
{"target gene": "WASF1 (WASP family member 1)", "robust z-score, replicate 1": -0.592, "robust z-score, replicate 2": 1.15, "robust z-score, replicate 3": -0.0881}
{"target gene": "OR5A1 (olfactory receptor family 5 subfamily A member 1)", "robust z-score, replicate 1": -0.89, "robust z-score, replicate 2": -1.33, "robust z-score, replicate 3": -1.08}

Part of the list above, reformatted.
target gene	robust z-score, replicate 1	robust z-score, replicate 2	robust z-score, replicate 3
NTAN1 (N-terminal asparagine amidase)	2.86 (active)	2.48	2.88
NT5C3A (5'-nucleotidase, cytosolic IIIA)	0.678	1.37	-1.94

Additional reagents follow.
{"target gene": "ACADL (acyl-CoA dehydrogenase long chain)", "robust z-score, replicate 1": 0.352, "robust z-score, replicate 2": 0.136, "robust z-score, replicate 3": 0.662}
{"target gene": "PDAP1P3 (PDAP1 pseudogene 3)", "robust z-score, replicate 1": 0.0475, "robust z-score, replicate 2": -0.281, "robust z-score, replicate 3": 0.261}
{"target gene": "CAMTA2 (calmodulin binding transcription activator 2)", "robust z-score, replicate 1": -0.0235, "robust z-score, replicate 2": -0.748, "robust z-score, replicate 3": 1.37}
{"target gene": "SLC17A3", "robust z-score, replicate 1": 0.0117, "robust z-score, replicate 2": 0.745, "robust z-score, replicate 3": 0.663}
{"target gene": "PYCR1 (pyrroline-5-carboxylate reductase 1)", "robust z-score, replicate 1": 1.4, "robust z-score, replicate 2": 0.881, "robust z-score, replicate 3": 1.89}
